Assay results as given in PMC3919264.
These are yes or no findings as the source states them, for the method shown.

Biological target: taxol-polymerized microtubules from bovine brain tubulin (bovine (purified from bovine brain))
Test: condition: only in the presence of 2 mM Mg2+-ATP (1–12 µM Kif15 19-375, 5 µM MTs); co-sedimentation; MT pelleting assay with 2 mM Mg2+-ATP: Kif15 19-375 (1–12 µM) mixed with taxol-polymerized MTs (5 µM), 50 mM PIPES pH 6.9, 20 mM NaCl, 2 mM MgCl2, 1 mM DTT, room temperature 10 min, 100 000g at 25°C for 20 min, SDS–PAGE of supernatants and pellets; both purified

- binding: no binding
B1: Homo sapiens Kif15 motor domain and neck-linker region (Kif15 19-375) (domain or fragment, UniProt Q9NS87 19-375)
chain: QPSNEGDAIKVFVRIRPPAERSGSADGEQNLCLSVLSSTSLRLHSNPEPKTFTFDHVADVDTTQESVFATVAKSIVESCMSGYNGTIFAYGQTGSGKTFTMMGPSESDNFSHNLRGVIPRSFEYLFSLIDREKEKAGAGKSFLCKCSFIEIYNEQIYDLLDSASAGLYLREHIKKGVFVVGAVEQVVTSAAEAYQVLSGGWRNRRVASTSMNRESSRSHAVFTITIESMEKSNEIVNIRTSLLNLVDLAGSERQKDTHAEGMRLKEAGNINRSLSCLGQVITALVDVGNGKQRHVCYRDSKLTFLLRDSLGGNAKTAIIANVHPGSRCFGETLSTLNFAQRAKLIKNKAVVNEDTQG
